PubChem BioAssay AID1053208 – Peter MacCallum Cancer Centre, 2014
Shown is a random part of about 17,000 reagents. 788 of all reagents (4.7%) count as active. 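Calls rest on z-score classes alone; an extra cut-off of viability at most 70% of control was not applied to them.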 Reagents against one gene are numbered here. Not all columns of the deposit are shown. No sequences are given here.

- Assay: 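Find knock-downs that sensitise mouse osteosarcoma cells to doxorubicin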 (primary screen)
- Cells: mouse osteosarcoma cells, early-passage culture from an engineered mouse model of fibroblastic bone tumour
- Reagent: siRNA pool against mouse genes, 40 nM
- Time to read-out: about 120 h (48 h before drug, then 72 h with drug)
- Treatment: doxorubicin 100 nM for 72 h, roughly 30-40% inhibitory dose
- Measured: 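Viability read as ATP luminescence after 72 h of 100 nM doxorubicin or none, duplicate wells averaged, scaled to non-targeting siRNA, then expressed as robust z-scores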
- Direction: viability z-score with doxorubicin: higher = more viable cells under doxorubicin; viability z-score without drug: higher = more viable cells with knock-down alone
- Rule for the call: 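Called active if knock-down leaves viability unchanged without drug (z within -2 to 2) but lowers it with doxorubicin (z at or under -2)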

The opening 2 records, to show the layout:
| gene | pool no. | combined z-score class | viability z-score with doxorubicin | viability z-score without drug | outcome |
| --- | --- | --- | --- | --- | --- |
| Mxd4 | 1 | no change with or without drug | 1.35 | 0.84 | inactive |
| Pdgfrl | 1 | no change with or without drug | 0 | -0.67 | inactive |

The list itself, from the start:
| gene | pool no. | combined z-score class | viability z-score with doxorubicin | viability z-score without drug | outcome |
| --- | --- | --- | --- | --- | --- |
| Mxd4 | 1 | no change with or without drug | 1.35 | 0.84 | inactive |
| Pdgfrl | 1 | no change with or without drug | 0 | -0.67 | inactive |
| Sigirr | 1 | high cell count without drug only | 0.67 | 2.19 | inactive |
| Ihh | 1 | no change with or without drug | 0.45 | 0.51 | inactive |
| Champ1 | 1 | no change with or without drug | 0.56 | -0.17 | inactive |
| Pcbp4 | 1 | no change with or without drug | -1.35 | -0.51 | inactive |
| Ptprb | 1 | no change with or without drug | 1.57 | 1.69 | inactive |
| Galntl5 | 1 | no change with or without drug | -0.56 | 0 | inactive |
| Slc11a1 | 1 | no change with or without drug | -0.22 | 0.84 | inactive |
| Gpr139 | 1 | no change with or without drug | 0.56 | 1.01 | inactive |
| Fam149b | 1 | low cell count with doxorubicin only | -2.25 | -1.18 | active |
| Ctf2 | 1 | no change with or without drug | 0.34 | 0.34 | inactive |
| Spred2 | 1 | no change with or without drug | 1.01 | -0.34 | inactive |
| Cth | 1 | no change with or without drug | 0.56 | -0.17 | inactive |
| Csrp3 | 1 | no change with or without drug | 1.91 | -0.17 | inactive |
| Vps29 | 1 | no change with or without drug | 0.56 | 0.84 | inactive |
| Klhdc3 | 1 | no change with or without drug | -1.24 | -1.01 | inactive |
| Abcb8 | 1 | no change with or without drug | 0.22 | -0.17 | inactive |
| Pbld1 | 1 | no change with or without drug | -1.91 | 0.17 | inactive |
| Sult1e1 | 1 | no change with or without drug | 1.01 | 1.01 | inactive |
| Pdcd10 | 1 | no change with or without drug | 1.12 | 0 | inactive |
| Ifitm3 | 1 | no change with or without drug | -0.45 | -0.17 | inactive |
| Tmem79 | 1 | no change with or without drug | 0.45 | 0.84 | inactive |
| Faim2 | 1 | no change with or without drug | -0.67 | -0.51 | inactive |
| Grb14 | 1 | no change with or without drug | -0.45 | -0.51 | inactive |
| Vmn1r237 | 1 | no change with or without drug | -1.35 | 0.34 | inactive |
| Il7 | 1 | no change with or without drug | -0.9 | 0.84 | inactive |
| Rpn2 | 1 | no change with or without drug | -1.57 | -0.34 | inactive |
| Strbp | 1 | no change with or without drug | -0.45 | -0.17 | inactive |
| Strbp | 2 | no change with or without drug | 1.46 | 1.52 | inactive |
| 4921522P10Rik | 1 | low cell count with doxorubicin only | -7.76 | 0.67 | active |
| Rbm15 | 1 | no change with or without drug | 0.22 | 0.51 | inactive |
| Zfp750 | 1 | no change with or without drug | 0.67 | 1.18 | inactive |
| Mmp15 | 1 | no change with or without drug | -0.9 | -0.17 | inactive |
| 3110040N11Rik | 1 | no change with or without drug | 1.35 | 0.51 | inactive |
| Snx6 | 1 | no change with or without drug | 0 | 0.67 | inactive |
| Nf1 | 1 | high cell count with doxorubicin only | 2.02 | 0.84 | inactive |
| Snap29 | 1 | no change with or without drug | -0.34 | -0.67 | inactive |
| Ptpre | 1 | no change with or without drug | 0.34 | 0.51 | inactive |
| Ttc34 | 1 | no change with or without drug | 0.67 | 0.51 | inactive |
| Pcdhb10 | 1 | no change with or without drug | -1.8 | -1.52 | inactive |
| 1700129C05Rik | 1 | low cell count with doxorubicin only | -2.25 | -0.67 | active |
| Gm5134 | 1 | high cell count with doxorubicin only | 2.25 | 0.17 | inactive |
| Ripk2 | 1 | high cell count without drug only | 0.67 | 2.19 | inactive |
| Lhx8 | 1 | low cell count with and without drug | -2.02 | -2.19 | inactive |
| Ccdc86 | 1 | no change with or without drug | -0.11 | -0.51 | inactive |
| Zcrb1 | 1 | no change with or without drug | -0.22 | -0.67 | inactive |
| Serpine2 | 1 | no change with or without drug | 1.8 | 0.84 | inactive |
| BC048679 | 1 | no change with or without drug | -1.8 | -1.18 | inactive |
| L2hgdh | 1 | no change with or without drug | -0.11 | -0.84 | inactive |
